# Test results as given in the supplement of paper PMC8728848.
# This is one part of the list.
# Tests used:
# Experiment in all cases: glycan array binding signal (z-score within array); higher = stronger binding
# Conditions in all cases: glycan notation: IUPAC condensed, linker removed
# [1] = target: GlcNAc6S(b1-3)Gal(b1-4)GlcNAc
# How it was run: (§1)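 The binding signal is a Z-score computed within each array and averaged over linkers. Arrays of the same protein sequence at different concentrations or buffers were also averaged together. Data originate from 3228 arrays in the Consortium for Functional Glycomics database, kept only where the protein sequence was available.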
# [2] = target: Kdn(a2-3)Gal(b1-3)GalNAc
# How it was run: as §1
# [3] = target: Kdn(a2-3)Gal(b1-3)GlcNAc
# How it was run: as §1
# [4] = target: Kdn(a2-3)Gal(b1-4)Glc
# How it was run: as §1
# [5] = target: Kdn(a2-3)Gal(b1-4)GlcNAc
# How it was run: as §1
# [6] = target: Kdn(a2-3)Gal(b1-4)[Fuc(a1-3)]GlcNAc
# How it was run: as §1
# [7] = target: Kdn(a2-6)Gal(b1-4)GlcNAc
# How it was run: as §1
# [8] = target: Man(a1-2)Man(a1-2)Man(a1-3)Man
# How it was run: as §1
# [9] = target: Man(a1-2)Man(a1-2)Man(a1-6)[Man(a1-3)]Man
# How it was run: as §1
# [10] = target: Man(a1-2)Man(a1-3)Man
# How it was run: as §1
# [11] = target: Man(a1-2)Man(a1-3)[Man(a1-2)Man(a1-6)]Man
# How it was run: as §1
# [12] = target: Man(a1-2)Man(a1-3)[Man(a1-2)Man(a1-6)]Man(a1-6)[Man(a1-2)Man(a1-2)Man(a1-3)]Man
# How it was run: as §1
# [13] = target: Man(a1-2)Man(a1-3)[Man(a1-2)Man(a1-6)]Man(a1-6)[Man(a1-2)Man(a1-2)Man(a1-3)]Man(b1-4)GlcNAc(b1-4)GlcNAc
# How it was run: as §1
# [14] = target: Man(a1-2)Man(a1-3)[Man(a1-6)]Man(a1-6)[Man(a1-2)Man(a1-3)]Man(b1-4)GlcNAc(b1-4)GlcNAc
# How it was run: as §1
# [15] = target: Man(a1-2)Man(a1-6)[Man(a1-3)]Man(a1-6)[Man(a1-2)Man(a1-2)Man(a1-3)]Man
# How it was run: as §1
# [16] = target: Man(a1-2)Man(a1-6)[Man(a1-3)]Man(a1-6)[Man(a1-2)Man(a1-2)Man(a1-3)]Man(b1-4)GlcNAc(b1-4)GlcNAc
# How it was run: as §1
# [17] = target: Man(a1-3)[Man(a1-6)]Man
# How it was run: as §1
# [18] = target: Man(a1-3)[Man(a1-6)]Man(a1-6)[Man(a1-2)Man(a1-3)]Man(b1-4)GlcNAc(b1-4)GlcNAc
# How it was run: as §1
# [19] = target: Man(a1-3)[Man(a1-6)]Man(a1-6)[Man(a1-3)]Man
# How it was run: as §1
# [20] = target: Man(a1-3)[Man(a1-6)]Man(a1-6)[Man(a1-3)]Man(b1-4)GlcNAc(b1-4)GlcNAc
# How it was run: as §1
# [21] = target: Man(a1-3)[Man(a1-6)]Man(b1-4)GlcNAc(b1-4)GlcNAc
# How it was run: as §1
# [22] = target: Man(a1-6)Man
# How it was run: as §1
# [23] = target: Man(b1-4)GlcNAc
# How it was run: as §1
# [24] = target: Neu5Ac(a2-3)Gal
# How it was run: as §1
# [25] = target: Neu5Ac(a2-3)Gal(b1-3)GalNAc
# How it was run: as §1
# [26] = target: Neu5Ac(a2-3)Gal(b1-3)GalNAc(b1-3)Gal(a1-4)Gal(b1-4)Glc
# How it was run: as §1
# [27] = target: Neu5Ac(a2-3)Gal(b1-3)GalNAc(b1-4)[Neu5Ac(a2-3)]Gal(b1-4)Glc
# How it was run: as §1
# [28] = target: Neu5Ac(a2-3)Gal(b1-3)GalNAc6S
# How it was run: as §1
# [29] = target: Neu5Ac(a2-3)Gal(b1-3)GlcNAc
# How it was run: as §1
# [30] = target: Neu5Ac(a2-3)Gal(b1-3)GlcNAc(b1-2)Man(a1-3)[Neu5Ac(a2-3)Gal(b1-3)GlcNAc(b1-2)Man(a1-6)]Man(b1-4)GlcNAc(b1-4)GlcNAc
# How it was run: as §1
# [31] = target: Neu5Ac(a2-3)Gal(b1-3)GlcNAc(b1-3)Gal(b1-3)GlcNAc
# How it was run: as §1
# [32] = target: Neu5Ac(a2-3)Gal(b1-3)GlcNAc(b1-3)Gal(b1-4)GlcNAc
# How it was run: as §1
# [33] = target: Neu5Ac(a2-3)Gal(b1-3)GlcNAc(b1-3)GalNAc
# How it was run: as §1
# [34] = target: Neu5Ac(a2-3)Gal(b1-3)GlcNAc6S
# How it was run: as §1
# [35] = target: Neu5Ac(a2-3)Gal(b1-3)[Fuc(a1-4)]GlcNAc
# How it was run: as §1
# [36] = target: Neu5Ac(a2-3)Gal(b1-3)[Fuc(a1-4)]GlcNAc(b1-3)Gal(b1-3)[Fuc(a1-4)]GlcNAc
# How it was run: as §1
# [37] = target: Neu5Ac(a2-3)Gal(b1-3)[Fuc(a1-4)]GlcNAc(b1-3)Gal(b1-4)[Fuc(a1-3)]GlcNAc
# How it was run: as §1
# [38] = target: Neu5Ac(a2-3)Gal(b1-3)[Neu5Ac(a2-3)Gal(b1-4)]GlcNAc
# How it was run: as §1
# [39] = target: Neu5Ac(a2-3)Gal(b1-3)[Neu5Ac(a2-6)]GalNAc
# How it was run: as §1
# [40] = target: Neu5Ac(a2-3)Gal(b1-4)Glc
# How it was run: as §1
# [41] = target: Neu5Ac(a2-3)Gal(b1-4)GlcNAc
# How it was run: as §1
# [42] = target: Neu5Ac(a2-3)Gal(b1-4)GlcNAc(b1-2)Man(a1-3)[GlcNAc(b1-2)Man(b1-4)GlcNAc(b1-2)Man(a1-6)]Man(b1-4)GlcNAc(b1-4)GlcNAc
# How it was run: as §1
# [43] = target: Neu5Ac(a2-3)Gal(b1-4)GlcNAc(b1-2)Man(a1-3)[Neu5Ac(a2-6)Gal(b1-4)GlcNAc(b1-2)Man(a1-6)]Man(b1-4)GlcNAc(b1-4)GlcNAc
# How it was run: as §1
# [44] = target: Neu5Ac(a2-3)Gal(b1-4)GlcNAc(b1-3)Gal(b1-3)GlcNAc
# How it was run: as §1
# [45] = target: Neu5Ac(a2-3)Gal(b1-4)GlcNAc(b1-3)Gal(b1-4)GlcNAc
# How it was run: as §1
binder,measurement,setting,value
"CLEC9a (Mus musculus), Q8BRU4 (protein) MHAEEIYTSLQWDIPTSEASQKCQSPSKCSGAWCVVTMISCVVCMGLLATSIFLGIKFFQVSSLVLEQQERLIQQDTALVNLTQWQRKYTLEYCQALLQRSLHSGSDCSPCPHNWIQNGKSCYYVFERWEMWNISKKSCLKEGASLFQIDSKEEMEFISSIGKLKGGNKYWVGVFQDGISGSWFWEDGSSPLSDLLPAERQRSAGQICGYLKDSTLISDKCDSWKYFICEKKAFGSCI",glycan array binding signal (z-score),[1],-0.453
same,glycan array binding signal (z-score),[2],-0.362
same,glycan array binding signal (z-score),[3],0.146
same,glycan array binding signal (z-score),[4],-0.577
same,glycan array binding signal (z-score),[5],-0.883
same,glycan array binding signal (z-score),[6],0.426
same,glycan array binding signal (z-score),[7],-1.11
same,glycan array binding signal (z-score),[8],0.802
same,glycan array binding signal (z-score),[9],0.862
same,glycan array binding signal (z-score),[10],-0.306
same,glycan array binding signal (z-score),[11],1.16
same,glycan array binding signal (z-score),[12],-0.272
same,glycan array binding signal (z-score),[13],-0.176
same,glycan array binding signal (z-score),[14],0.588
same,glycan array binding signal (z-score),[15],1.26
same,glycan array binding signal (z-score),[16],-1.22
same,glycan array binding signal (z-score),[17],0.958
same,glycan array binding signal (z-score),[18],-0.972
same,glycan array binding signal (z-score),[19],-0.819
same,glycan array binding signal (z-score),[20],0.482
same,glycan array binding signal (z-score),[21],-1.21
same,glycan array binding signal (z-score),[22],1.63
same,glycan array binding signal (z-score),[23],0.35
same,glycan array binding signal (z-score),[24],1.18
same,glycan array binding signal (z-score),[25],0.267
same,glycan array binding signal (z-score),[26],0.626
same,glycan array binding signal (z-score),[27],-1.05
same,glycan array binding signal (z-score),[28],-0.528
same,glycan array binding signal (z-score),[29],0.352
same,glycan array binding signal (z-score),[30],-0.763
same,glycan array binding signal (z-score),[31],-1.66
same,glycan array binding signal (z-score),[32],-1.01
same,glycan array binding signal (z-score),[33],-1.06
same,glycan array binding signal (z-score),[34],0.331
same,glycan array binding signal (z-score),[35],-0.871
same,glycan array binding signal (z-score),[36],0.365
same,glycan array binding signal (z-score),[37],-0.962
same,glycan array binding signal (z-score),[38],0.15
same,glycan array binding signal (z-score),[39],-0.457
same,glycan array binding signal (z-score),[40],0.304
same,glycan array binding signal (z-score),[41],1.26
same,glycan array binding signal (z-score),[42],2.01
same,glycan array binding signal (z-score),[43],-0.866
same,glycan array binding signal (z-score),[44],-0.03
same,glycan array binding signal (z-score),[45],0.79

# Two successive records out of the list so far, for reference:
binder,measurement,setting,value
"CLEC9a (Mus musculus), Q8BRU4 (protein) MHAEEIYTSLQWDIPTSEASQKCQSPSKCSGAWCVVTMISCVVCMGLLATSIFLGIKFFQVSSLVLEQQERLIQQDTALVNLTQWQRKYTLEYCQALLQRSLHSGSDCSPCPHNWIQNGKSCYYVFERWEMWNISKKSCLKEGASLFQIDSKEEMEFISSIGKLKGGNKYWVGVFQDGISGSWFWEDGSSPLSDLLPAERQRSAGQICGYLKDSTLISDKCDSWKYFICEKKAFGSCI",glycan array binding signal (z-score),[26],0.626
same,glycan array binding signal (z-score),[27],-1.05
